According to ChEMBL document CHEMBL2218924, “A broad activity screen in support of a chemogenomic map for kinase signalling research and drug discovery” (Biochem J, 2013):
For some assays here: Shown are results outside the selection of strong results, which stands elsewhere. How the calls were made is not given here. This is a selection; strong and weak results do not stand in their true shares.

The chains behind the UniProt entries cited, without tags or fusion partners. Where a name states a change or a piece, a line headed by the entry shows the natural chain unless it says otherwise.
UniProt P07332: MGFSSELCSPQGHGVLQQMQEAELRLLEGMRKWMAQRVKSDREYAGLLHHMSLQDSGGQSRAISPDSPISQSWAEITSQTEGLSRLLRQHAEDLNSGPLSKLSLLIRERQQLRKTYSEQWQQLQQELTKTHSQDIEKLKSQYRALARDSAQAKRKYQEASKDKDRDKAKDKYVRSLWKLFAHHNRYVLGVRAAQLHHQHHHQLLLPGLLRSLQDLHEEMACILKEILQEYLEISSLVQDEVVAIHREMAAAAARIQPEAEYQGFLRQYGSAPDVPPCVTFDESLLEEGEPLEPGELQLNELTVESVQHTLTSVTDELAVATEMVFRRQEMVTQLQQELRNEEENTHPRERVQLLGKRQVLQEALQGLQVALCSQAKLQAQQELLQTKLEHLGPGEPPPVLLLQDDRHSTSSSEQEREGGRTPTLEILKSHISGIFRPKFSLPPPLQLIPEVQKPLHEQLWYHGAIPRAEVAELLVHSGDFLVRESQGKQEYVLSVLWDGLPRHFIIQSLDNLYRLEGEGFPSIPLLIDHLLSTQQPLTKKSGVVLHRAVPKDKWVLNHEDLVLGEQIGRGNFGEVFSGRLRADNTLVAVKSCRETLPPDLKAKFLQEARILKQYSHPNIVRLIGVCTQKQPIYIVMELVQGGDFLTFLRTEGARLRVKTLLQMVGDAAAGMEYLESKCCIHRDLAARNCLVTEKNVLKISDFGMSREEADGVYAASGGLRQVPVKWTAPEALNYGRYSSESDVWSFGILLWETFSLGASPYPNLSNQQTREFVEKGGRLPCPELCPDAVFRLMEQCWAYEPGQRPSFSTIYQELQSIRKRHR
UniProt P35916, whole entry: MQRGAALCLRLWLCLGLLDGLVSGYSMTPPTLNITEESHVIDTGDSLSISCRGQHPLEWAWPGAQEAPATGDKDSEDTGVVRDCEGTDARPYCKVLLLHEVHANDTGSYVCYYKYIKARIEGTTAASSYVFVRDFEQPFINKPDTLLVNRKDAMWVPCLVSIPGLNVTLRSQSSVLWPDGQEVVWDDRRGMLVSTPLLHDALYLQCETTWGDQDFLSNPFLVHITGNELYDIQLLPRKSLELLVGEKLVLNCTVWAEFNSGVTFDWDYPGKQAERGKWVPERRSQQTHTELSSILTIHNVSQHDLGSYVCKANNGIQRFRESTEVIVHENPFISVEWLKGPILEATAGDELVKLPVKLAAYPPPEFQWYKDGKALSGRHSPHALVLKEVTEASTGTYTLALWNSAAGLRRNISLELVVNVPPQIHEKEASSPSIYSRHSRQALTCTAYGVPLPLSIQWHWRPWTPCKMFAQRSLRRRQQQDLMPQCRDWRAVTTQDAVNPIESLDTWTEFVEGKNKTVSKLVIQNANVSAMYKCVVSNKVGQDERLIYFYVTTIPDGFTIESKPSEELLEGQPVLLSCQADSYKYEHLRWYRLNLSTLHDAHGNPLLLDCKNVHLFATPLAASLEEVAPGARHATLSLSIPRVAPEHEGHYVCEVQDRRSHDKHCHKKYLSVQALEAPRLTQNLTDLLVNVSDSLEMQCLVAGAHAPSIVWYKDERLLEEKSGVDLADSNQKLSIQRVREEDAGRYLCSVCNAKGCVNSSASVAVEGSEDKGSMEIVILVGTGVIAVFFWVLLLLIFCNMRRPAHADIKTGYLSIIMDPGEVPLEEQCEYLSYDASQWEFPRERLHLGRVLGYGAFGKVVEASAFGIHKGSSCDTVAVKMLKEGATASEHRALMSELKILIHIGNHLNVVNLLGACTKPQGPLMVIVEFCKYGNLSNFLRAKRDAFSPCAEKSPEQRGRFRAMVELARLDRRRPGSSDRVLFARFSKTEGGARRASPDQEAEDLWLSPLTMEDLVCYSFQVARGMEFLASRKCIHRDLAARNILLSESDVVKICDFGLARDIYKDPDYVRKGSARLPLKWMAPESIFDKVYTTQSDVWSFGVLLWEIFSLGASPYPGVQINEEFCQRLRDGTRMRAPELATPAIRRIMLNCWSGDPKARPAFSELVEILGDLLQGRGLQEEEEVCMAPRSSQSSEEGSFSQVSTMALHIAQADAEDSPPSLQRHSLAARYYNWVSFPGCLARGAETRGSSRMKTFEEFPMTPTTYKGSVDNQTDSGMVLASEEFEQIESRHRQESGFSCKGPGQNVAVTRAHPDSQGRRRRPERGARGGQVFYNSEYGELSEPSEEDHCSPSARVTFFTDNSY
UniProt P07333, whole entry: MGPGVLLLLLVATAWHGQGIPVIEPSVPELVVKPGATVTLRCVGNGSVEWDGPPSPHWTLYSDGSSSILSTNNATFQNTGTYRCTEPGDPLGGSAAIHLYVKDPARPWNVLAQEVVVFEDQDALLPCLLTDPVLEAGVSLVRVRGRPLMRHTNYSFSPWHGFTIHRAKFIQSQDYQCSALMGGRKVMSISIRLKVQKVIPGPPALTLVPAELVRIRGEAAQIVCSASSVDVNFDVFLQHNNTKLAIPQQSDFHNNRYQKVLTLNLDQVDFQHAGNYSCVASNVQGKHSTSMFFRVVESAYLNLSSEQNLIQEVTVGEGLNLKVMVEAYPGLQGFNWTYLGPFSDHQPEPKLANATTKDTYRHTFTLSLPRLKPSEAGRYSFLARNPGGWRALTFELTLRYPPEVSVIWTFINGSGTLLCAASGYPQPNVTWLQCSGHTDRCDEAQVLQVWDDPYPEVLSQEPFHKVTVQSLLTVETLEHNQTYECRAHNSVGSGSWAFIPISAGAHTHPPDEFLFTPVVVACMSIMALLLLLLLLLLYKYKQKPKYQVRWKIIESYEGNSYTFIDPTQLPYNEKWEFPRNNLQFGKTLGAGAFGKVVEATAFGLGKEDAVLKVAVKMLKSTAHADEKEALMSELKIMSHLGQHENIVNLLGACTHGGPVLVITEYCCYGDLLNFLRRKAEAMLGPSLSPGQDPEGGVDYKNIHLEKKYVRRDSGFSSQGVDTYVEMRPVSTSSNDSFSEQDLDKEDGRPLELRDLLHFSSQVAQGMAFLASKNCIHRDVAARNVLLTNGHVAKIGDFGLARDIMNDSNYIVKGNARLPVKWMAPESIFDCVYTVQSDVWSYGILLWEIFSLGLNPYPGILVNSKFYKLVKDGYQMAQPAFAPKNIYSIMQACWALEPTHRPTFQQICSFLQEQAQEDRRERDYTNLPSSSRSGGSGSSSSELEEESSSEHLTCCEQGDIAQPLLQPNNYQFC
UniProt P06241, whole entry, looked up: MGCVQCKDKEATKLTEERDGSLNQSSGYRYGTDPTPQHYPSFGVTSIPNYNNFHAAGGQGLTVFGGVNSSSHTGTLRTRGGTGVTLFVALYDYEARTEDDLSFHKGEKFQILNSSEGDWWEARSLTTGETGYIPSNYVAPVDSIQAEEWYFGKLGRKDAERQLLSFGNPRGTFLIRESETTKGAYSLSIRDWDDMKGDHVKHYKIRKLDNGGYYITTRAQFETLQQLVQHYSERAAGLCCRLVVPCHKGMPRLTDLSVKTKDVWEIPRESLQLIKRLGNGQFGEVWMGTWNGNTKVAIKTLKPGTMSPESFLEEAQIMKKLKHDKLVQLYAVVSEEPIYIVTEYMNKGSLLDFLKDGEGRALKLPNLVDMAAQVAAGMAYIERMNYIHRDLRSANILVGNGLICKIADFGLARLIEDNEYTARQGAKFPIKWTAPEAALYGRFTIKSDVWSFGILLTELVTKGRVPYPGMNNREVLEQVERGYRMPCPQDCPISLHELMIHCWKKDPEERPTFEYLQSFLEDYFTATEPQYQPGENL
UniProt P43250, whole entry, looked up: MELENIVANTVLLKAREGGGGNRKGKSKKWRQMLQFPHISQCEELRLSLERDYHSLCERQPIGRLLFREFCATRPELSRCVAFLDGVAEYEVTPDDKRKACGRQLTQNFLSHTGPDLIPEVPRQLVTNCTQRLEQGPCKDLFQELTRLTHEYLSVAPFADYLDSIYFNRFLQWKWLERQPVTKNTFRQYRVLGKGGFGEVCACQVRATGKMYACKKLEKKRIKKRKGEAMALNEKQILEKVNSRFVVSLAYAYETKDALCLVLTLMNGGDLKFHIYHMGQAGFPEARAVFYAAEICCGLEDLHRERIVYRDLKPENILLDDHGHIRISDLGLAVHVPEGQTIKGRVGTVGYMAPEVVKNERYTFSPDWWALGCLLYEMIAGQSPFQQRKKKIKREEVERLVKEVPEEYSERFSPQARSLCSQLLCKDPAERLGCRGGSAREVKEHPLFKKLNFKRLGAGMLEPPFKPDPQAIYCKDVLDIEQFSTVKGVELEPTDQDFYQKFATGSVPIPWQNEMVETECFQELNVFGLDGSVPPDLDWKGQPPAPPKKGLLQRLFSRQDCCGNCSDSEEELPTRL
UniProt P49841: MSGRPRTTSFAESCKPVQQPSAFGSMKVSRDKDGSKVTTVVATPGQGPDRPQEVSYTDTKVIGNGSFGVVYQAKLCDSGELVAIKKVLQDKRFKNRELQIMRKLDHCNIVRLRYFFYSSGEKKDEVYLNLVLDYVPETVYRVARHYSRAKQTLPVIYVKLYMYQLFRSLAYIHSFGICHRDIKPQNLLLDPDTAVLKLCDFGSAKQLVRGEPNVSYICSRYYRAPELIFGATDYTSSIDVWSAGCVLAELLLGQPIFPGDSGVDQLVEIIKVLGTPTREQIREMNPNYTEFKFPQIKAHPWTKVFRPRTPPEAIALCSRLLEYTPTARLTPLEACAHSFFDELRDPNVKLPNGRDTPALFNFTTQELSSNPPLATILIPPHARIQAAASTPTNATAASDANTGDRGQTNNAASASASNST
UniProt Q86Z02: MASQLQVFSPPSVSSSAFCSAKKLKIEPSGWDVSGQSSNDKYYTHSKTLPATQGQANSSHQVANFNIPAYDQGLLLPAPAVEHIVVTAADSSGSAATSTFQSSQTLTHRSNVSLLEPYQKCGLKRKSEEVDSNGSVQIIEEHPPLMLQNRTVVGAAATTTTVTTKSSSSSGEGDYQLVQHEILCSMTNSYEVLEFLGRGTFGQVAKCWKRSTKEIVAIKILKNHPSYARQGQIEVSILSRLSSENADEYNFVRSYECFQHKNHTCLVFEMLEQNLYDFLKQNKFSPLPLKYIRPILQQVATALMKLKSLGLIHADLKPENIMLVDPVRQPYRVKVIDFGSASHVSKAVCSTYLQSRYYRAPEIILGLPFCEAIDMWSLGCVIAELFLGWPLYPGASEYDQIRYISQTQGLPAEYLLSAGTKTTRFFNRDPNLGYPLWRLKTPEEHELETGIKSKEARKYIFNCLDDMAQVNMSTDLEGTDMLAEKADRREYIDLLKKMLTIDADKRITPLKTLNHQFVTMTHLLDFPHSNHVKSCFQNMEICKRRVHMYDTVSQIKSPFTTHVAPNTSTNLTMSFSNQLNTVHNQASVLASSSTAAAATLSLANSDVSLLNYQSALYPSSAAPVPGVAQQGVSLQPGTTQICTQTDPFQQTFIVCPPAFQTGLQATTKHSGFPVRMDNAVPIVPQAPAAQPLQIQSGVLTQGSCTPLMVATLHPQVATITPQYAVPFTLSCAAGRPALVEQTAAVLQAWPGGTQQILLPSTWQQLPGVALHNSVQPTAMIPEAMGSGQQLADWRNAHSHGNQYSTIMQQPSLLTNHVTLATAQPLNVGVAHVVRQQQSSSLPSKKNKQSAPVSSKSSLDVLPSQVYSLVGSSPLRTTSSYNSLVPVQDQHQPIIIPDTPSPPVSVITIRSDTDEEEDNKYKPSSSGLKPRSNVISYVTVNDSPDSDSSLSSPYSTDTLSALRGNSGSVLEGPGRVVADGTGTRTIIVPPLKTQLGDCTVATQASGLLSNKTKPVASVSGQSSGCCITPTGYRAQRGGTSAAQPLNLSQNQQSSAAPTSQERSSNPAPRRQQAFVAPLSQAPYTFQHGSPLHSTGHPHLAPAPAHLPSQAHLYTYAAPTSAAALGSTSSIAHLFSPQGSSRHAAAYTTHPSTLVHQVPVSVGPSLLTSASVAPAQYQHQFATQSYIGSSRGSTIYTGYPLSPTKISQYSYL
UniProt P08631: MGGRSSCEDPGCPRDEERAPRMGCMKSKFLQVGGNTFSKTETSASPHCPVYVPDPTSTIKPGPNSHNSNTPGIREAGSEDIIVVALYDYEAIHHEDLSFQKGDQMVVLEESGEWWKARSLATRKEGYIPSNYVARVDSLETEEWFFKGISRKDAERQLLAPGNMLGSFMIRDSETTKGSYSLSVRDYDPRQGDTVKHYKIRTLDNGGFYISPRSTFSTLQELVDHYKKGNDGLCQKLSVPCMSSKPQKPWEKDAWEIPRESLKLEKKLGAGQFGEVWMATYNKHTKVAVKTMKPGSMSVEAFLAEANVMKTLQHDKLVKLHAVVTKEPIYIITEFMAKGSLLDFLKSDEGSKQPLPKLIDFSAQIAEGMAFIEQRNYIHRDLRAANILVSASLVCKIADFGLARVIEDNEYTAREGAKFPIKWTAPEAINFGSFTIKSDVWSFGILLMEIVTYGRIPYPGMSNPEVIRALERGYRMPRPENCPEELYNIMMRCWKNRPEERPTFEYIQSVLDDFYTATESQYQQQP

Columns and labels:
[1] = target: Fibroblast growth factor receptor 1 (Homo sapiens) (UniProt P11362); conditions: at 1 µM
[2] = target: Fibroblast growth factor receptor 1 (Homo sapiens) (UniProt P11362); conditions: at 10 µM
[3] = target: Fibroblast growth factor receptor 2 (Homo sapiens) (UniProt P21802); conditions: at 1 µM
[4] = target: Fibroblast growth factor receptor 2 (Homo sapiens) (UniProt P21802); conditions: at 10 µM
[5] = target: Fibroblast growth factor receptor 3 (Homo sapiens) (UniProt P22607); conditions: at 1 µM
[6] = target: Fibroblast growth factor receptor 3 (Homo sapiens) (UniProt P22607); conditions: at 10 µM
[7] = target: Fibroblast growth factor receptor 4 (Homo sapiens) (UniProt P22455); conditions: at 1 µM
[8] = target: Fibroblast growth factor receptor 4 (Homo sapiens) (UniProt P22455); conditions: at 10 µM
[9] = target: Tyrosine-protein kinase Fer (Homo sapiens) (UniProt P16591); conditions: at 1 µM
[10] = target: Tyrosine-protein kinase Fer (Homo sapiens) (UniProt P16591); conditions: at 10 µM
[11] = target: Tyrosine-protein kinase Fes/Fps (Homo sapiens) (UniProt P07332); conditions: at 1 µM
[12] = target: Tyrosine-protein kinase Fes/Fps (Homo sapiens) (UniProt P07332); conditions: at 10 µM
[13] = target: Tyrosine-protein kinase Fgr (Homo sapiens) (UniProt P09769); conditions: at 1 µM
[14] = target: Tyrosine-protein kinase Fgr (Homo sapiens) (UniProt P09769); conditions: at 10 µM
[15] = target: Vascular endothelial growth factor receptor 1 (Homo sapiens) (UniProt P17948); conditions: at 1 µM
[16] = target: Vascular endothelial growth factor receptor 1 (Homo sapiens) (UniProt P17948); conditions: at 10 µM
[17] = target: Receptor-type tyrosine-protein kinase FLT3 (Homo sapiens) (UniProt P36888); conditions: at 1 µM
[18] = target: Receptor-type tyrosine-protein kinase FLT3 (Homo sapiens) (UniProt P36888); conditions: at 10 µM
[19] = target: Vascular endothelial growth factor receptor 3 (Homo sapiens) (UniProt P35916); conditions: at 1 µM
[20] = target: Vascular endothelial growth factor receptor 3 (Homo sapiens) (UniProt P35916); conditions: at 10 µM
[21] = target: Macrophage colony-stimulating factor 1 receptor (Homo sapiens) (UniProt P07333); conditions: at 1 µM
[22] = target: Macrophage colony-stimulating factor 1 receptor (Homo sapiens) (UniProt P07333); conditions: at 10 µM
[23] = target: Tyrosine-protein kinase Fyn (Homo sapiens) (UniProt P06241); conditions: at 1 µM
[24] = target: Tyrosine-protein kinase Fyn (Homo sapiens) (UniProt P06241); conditions: at 10 µM
[25] = target: Mitogen-activated protein kinase kinase kinase kinase 2 (Homo sapiens) (UniProt Q12851); conditions: at 1 µM
[26] = target: Mitogen-activated protein kinase kinase kinase kinase 2 (Homo sapiens) (UniProt Q12851); conditions: at 10 µM
[27] = target: G protein-coupled receptor kinase 5 (Homo sapiens) (UniProt P34947); conditions: at 1 µM
[28] = target: G protein-coupled receptor kinase 5 (Homo sapiens) (UniProt P34947); conditions: at 10 µM
[29] = target: G protein-coupled receptor kinase 6 (Homo sapiens) (UniProt P43250); conditions: at 1 µM
[30] = target: G protein-coupled receptor kinase 6 (Homo sapiens) (UniProt P43250); conditions: at 10 µM
[31] = target: Rhodopsin kinase GRK7 (Homo sapiens) (UniProt Q8WTQ7); conditions: at 1 µM
[32] = target: Rhodopsin kinase GRK7 (Homo sapiens) (UniProt Q8WTQ7); conditions: at 10 µM
[33] = target: Glycogen synthase kinase-3 alpha (Homo sapiens) (UniProt P49840); conditions: at 1 µM
[34] = target: Glycogen synthase kinase-3 alpha (Homo sapiens) (UniProt P49840); conditions: at 10 µM
[35] = target: Glycogen synthase kinase-3 beta (Homo sapiens) (UniProt P49841); conditions: at 1 µM
[36] = target: Glycogen synthase kinase-3 beta (Homo sapiens) (UniProt P49841); conditions: at 10 µM
[37] = target: Homeodomain-interacting protein kinase 1 (Homo sapiens) (UniProt Q86Z02); conditions: at 1 µM
[38] = target: Homeodomain-interacting protein kinase 1 (Homo sapiens) (UniProt Q86Z02); conditions: at 10 µM
[39] = target: Homeodomain-interacting protein kinase 2 (Homo sapiens) (UniProt Q9H2X6); conditions: at 1 µM
[40] = target: Homeodomain-interacting protein kinase 2 (Homo sapiens) (UniProt Q9H2X6); conditions: at 10 µM
[41] = target: Homeodomain-interacting protein kinase 3 (Homo sapiens) (UniProt Q9H422); conditions: at 1 µM
[42] = target: Homeodomain-interacting protein kinase 3 (Homo sapiens) (UniProt Q9H422); conditions: at 10 µM
[43] = target: Serine/threonine-protein kinase haspin (Homo sapiens) (UniProt Q8TF76); conditions: at 1 µM
[44] = target: Serine/threonine-protein kinase haspin (Homo sapiens) (UniProt Q8TF76); conditions: at 10 µM
[45] = target: Tyrosine-protein kinase HCK (Homo sapiens) (UniProt P08631); conditions: at 1 µM
[46] = target: Tyrosine-protein kinase HCK (Homo sapiens) (UniProt P08631); conditions: at 10 µM
[47] = target: Tyrosine-protein kinase HCK (Homo sapiens) (UniProt P08631); conditions: at 1 µM; remark: listed apart in the source
[48] = target: Tyrosine-protein kinase HCK (Homo sapiens) (UniProt P08631); conditions: at 10 µM; remark: listed apart in the source
[49] = target: Insulin-like growth factor 1 receptor (Homo sapiens) (UniProt P08069); conditions: at 1 µM
[50] = target: Insulin-like growth factor 1 receptor (Homo sapiens) (UniProt P08069); conditions: at 10 µM
[51] = target: Protein kinase C zeta type (Homo sapiens) (UniProt Q05513); conditions: at 10 µM
[52] = target: Protein kinase C eta type (Homo sapiens) (UniProt P24723); conditions: at 1 µM
[53] = target: Protein kinase C eta type (Homo sapiens) (UniProt P24723); conditions: at 10 µM
[54] = target: Protein kinase C theta type (Homo sapiens) (UniProt Q04759); conditions: at 1 µM
[55] = target: Protein kinase C theta type (Homo sapiens) (UniProt Q04759); conditions: at 10 µM
[56] = target: Protein kinase C iota type (Homo sapiens) (UniProt P41743); conditions: at 1 µM

O=C1Nc2ccc(-c3cccnc3)cc2/C1=C\c1ccc[nH]1
residual activity [1]: 28%
residual activity [2]: 4%
residual activity [3]: 49%
residual activity [4]: 9%
residual activity [5]: 46%
residual activity [6]: 7%
residual activity [7]: 122%
residual activity [8]: 63%
residual activity [9]: 97%
residual activity [10]: 40%
residual activity [11]: 93%
residual activity [12]: 20%
residual activity [13]: 11%
residual activity [14]: 2%
residual activity [15]: 2%
residual activity [16]: 0%
residual activity [17]: 0%
residual activity [18]: 1%
residual activity [19]: 2%
residual activity [20]: 0%
residual activity [21]: 42%
residual activity [22]: 8%
residual activity [23]: 37%
residual activity [24]: 6%
residual activity [25]: 3%
residual activity [26]: 0%
residual activity [27]: 76%
residual activity [28]: 32%
residual activity [29]: 81%
residual activity [30]: 34%
residual activity [31]: 41%
residual activity [32]: 6%
residual activity [33]: 12%
residual activity [34]: 2%
residual activity [35]: 14%
residual activity [36]: 8%
residual activity [37]: 45%
residual activity [38]: 8%
residual activity [39]: 8%
residual activity [40]: 0%
residual activity [41]: 10%
residual activity [42]: 0%
residual activity [43]: 9%
residual activity [44]: 1%
residual activity [45]: 40%
residual activity [46]: 8%
residual activity [47]: 41%
residual activity [48]: 8%
residual activity [49]: 143%
residual activity [50]: 92%
residual activity [51]: 74%
residual activity [52]: 92%
residual activity [53]: 61%
residual activity [54]: 28%
residual activity [55]: 5%
residual activity [56]: inactive: 88%
